# Measured values reported in the supplement of paper PMC11006884.
# Sequences of proteins named here, by UniProt entry; tags and fusion partners are left off. A change or cut given only in a name is not applied to a line headed by its entry.
# UniProt Q8IX01: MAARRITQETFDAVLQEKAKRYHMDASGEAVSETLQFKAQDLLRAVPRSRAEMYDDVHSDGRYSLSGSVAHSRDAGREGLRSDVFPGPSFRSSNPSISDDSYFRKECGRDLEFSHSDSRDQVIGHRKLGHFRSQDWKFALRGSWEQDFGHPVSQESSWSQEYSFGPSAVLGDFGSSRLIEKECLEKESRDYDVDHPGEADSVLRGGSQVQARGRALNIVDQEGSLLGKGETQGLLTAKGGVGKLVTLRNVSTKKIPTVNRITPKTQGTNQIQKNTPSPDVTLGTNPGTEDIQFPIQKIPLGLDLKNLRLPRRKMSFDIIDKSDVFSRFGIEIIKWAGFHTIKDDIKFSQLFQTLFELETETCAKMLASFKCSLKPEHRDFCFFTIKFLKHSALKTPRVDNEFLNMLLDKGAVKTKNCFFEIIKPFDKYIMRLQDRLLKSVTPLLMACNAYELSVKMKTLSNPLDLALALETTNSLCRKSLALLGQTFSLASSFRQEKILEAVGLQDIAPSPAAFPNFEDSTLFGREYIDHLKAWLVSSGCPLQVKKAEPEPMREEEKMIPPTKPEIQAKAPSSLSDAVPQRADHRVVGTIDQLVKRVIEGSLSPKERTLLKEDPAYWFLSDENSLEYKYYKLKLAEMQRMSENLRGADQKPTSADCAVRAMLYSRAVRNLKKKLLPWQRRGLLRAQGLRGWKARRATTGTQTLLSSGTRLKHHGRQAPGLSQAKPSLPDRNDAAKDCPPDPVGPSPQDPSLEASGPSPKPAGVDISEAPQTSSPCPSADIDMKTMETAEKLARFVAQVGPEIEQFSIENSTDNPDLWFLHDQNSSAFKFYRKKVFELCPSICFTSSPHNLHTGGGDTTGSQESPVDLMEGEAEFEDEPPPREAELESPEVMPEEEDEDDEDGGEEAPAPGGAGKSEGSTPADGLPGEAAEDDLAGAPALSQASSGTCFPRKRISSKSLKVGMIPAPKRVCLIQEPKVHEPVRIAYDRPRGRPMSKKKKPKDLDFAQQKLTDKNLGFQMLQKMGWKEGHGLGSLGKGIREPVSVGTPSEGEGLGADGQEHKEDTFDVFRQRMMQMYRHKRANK
# UniProt Q86Y56: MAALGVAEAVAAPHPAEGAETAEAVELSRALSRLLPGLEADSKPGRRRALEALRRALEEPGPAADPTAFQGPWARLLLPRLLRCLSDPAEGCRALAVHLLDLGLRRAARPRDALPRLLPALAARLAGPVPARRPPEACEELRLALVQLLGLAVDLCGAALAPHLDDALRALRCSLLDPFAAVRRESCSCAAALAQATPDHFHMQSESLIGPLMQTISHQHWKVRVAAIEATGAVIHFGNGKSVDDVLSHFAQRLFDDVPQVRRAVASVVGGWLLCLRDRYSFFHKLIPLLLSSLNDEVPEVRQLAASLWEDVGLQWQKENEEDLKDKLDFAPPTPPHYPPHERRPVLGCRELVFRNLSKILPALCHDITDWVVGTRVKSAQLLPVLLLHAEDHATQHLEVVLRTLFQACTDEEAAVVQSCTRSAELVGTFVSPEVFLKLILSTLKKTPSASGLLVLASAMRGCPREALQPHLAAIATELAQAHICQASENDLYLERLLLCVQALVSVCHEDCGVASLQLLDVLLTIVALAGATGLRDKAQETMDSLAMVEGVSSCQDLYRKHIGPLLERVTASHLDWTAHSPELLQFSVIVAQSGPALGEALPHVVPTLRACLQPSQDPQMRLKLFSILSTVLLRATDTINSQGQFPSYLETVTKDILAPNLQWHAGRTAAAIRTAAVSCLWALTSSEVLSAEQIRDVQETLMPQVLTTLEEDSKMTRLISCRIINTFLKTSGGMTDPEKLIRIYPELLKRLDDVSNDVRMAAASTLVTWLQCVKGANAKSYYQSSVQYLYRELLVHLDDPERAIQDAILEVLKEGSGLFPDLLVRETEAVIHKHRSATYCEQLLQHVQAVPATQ
# UniProt Q86TG7: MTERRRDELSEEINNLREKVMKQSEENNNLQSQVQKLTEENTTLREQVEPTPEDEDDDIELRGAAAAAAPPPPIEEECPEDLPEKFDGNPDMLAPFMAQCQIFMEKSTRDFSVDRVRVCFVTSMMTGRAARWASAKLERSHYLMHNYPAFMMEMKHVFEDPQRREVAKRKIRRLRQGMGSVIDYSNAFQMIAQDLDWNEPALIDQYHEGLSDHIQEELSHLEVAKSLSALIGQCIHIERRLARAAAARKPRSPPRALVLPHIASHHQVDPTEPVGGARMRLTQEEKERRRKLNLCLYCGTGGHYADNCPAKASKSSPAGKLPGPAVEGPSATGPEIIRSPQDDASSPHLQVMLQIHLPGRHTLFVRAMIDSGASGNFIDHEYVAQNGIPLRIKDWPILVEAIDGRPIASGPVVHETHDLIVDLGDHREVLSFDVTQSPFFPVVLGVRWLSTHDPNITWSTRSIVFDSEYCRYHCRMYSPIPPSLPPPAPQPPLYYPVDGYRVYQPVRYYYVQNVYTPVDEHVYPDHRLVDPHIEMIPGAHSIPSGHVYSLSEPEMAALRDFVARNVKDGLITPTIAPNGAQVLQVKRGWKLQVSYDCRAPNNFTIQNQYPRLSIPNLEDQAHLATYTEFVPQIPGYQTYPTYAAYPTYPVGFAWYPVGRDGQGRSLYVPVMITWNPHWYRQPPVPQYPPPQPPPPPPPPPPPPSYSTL
# UniProt Q8IWS0: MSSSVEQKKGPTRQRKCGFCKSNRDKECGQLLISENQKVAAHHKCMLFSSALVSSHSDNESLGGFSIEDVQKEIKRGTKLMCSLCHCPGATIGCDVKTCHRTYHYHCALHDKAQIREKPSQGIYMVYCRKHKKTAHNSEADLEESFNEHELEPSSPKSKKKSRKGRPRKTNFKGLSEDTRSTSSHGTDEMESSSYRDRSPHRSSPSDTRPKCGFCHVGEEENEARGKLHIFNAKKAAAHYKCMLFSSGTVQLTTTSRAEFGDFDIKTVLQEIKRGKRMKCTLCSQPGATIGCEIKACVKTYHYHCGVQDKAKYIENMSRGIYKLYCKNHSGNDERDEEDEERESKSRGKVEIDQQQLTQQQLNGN
# UniProt Q86XN8: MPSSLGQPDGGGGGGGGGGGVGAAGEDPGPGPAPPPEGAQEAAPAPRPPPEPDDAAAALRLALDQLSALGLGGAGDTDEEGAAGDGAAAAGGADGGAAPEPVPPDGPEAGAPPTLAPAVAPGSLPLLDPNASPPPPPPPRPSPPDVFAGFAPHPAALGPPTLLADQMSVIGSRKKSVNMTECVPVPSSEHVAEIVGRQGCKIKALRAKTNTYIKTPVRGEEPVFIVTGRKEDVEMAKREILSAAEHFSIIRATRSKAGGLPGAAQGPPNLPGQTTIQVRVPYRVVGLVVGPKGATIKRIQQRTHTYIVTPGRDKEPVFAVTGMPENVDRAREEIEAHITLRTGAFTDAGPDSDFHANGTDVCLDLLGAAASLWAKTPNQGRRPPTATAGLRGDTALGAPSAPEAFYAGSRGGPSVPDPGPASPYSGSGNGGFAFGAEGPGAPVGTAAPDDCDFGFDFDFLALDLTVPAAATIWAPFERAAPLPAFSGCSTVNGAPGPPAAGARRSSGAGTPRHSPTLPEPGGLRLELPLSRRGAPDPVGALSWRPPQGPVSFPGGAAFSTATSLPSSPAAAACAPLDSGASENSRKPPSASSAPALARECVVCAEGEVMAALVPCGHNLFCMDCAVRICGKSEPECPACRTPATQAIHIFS
# UniProt Q7Z2T5: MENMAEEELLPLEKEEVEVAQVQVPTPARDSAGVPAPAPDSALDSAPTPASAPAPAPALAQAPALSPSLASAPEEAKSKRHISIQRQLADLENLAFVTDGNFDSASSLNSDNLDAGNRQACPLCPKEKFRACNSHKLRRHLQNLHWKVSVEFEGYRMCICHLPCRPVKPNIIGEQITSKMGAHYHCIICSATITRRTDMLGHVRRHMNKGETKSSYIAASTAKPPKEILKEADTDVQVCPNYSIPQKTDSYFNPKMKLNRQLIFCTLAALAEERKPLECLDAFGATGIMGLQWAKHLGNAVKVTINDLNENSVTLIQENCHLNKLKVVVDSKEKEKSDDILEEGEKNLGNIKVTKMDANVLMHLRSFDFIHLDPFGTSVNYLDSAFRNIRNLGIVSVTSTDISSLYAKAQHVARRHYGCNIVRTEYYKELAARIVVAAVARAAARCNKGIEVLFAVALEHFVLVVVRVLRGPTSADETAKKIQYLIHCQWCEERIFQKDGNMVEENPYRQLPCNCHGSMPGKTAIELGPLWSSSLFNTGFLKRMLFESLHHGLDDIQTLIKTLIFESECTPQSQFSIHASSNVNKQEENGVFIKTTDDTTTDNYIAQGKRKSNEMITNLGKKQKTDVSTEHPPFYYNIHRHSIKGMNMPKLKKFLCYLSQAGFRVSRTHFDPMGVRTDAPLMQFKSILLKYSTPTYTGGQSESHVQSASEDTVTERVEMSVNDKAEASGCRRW
# UniProt Q7L2J0: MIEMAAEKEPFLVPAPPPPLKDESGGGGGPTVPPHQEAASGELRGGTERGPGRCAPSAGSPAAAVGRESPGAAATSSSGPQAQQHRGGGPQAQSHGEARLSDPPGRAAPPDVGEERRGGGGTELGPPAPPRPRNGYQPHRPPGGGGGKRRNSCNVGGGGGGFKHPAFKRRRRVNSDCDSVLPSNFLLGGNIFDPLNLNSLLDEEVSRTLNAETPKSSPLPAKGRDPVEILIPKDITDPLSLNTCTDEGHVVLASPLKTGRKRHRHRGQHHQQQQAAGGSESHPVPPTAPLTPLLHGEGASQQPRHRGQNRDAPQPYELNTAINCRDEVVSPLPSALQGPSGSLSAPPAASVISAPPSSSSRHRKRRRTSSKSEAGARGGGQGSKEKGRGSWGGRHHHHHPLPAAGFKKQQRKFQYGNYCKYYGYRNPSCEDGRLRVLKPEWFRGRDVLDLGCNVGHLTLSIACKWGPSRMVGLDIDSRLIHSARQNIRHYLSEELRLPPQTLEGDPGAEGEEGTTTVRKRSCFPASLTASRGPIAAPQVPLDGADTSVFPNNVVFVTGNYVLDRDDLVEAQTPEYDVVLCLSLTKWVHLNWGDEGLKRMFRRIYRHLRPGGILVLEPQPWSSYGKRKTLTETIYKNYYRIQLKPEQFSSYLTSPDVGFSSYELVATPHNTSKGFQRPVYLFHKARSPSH
# UniProt Q7Z5K2: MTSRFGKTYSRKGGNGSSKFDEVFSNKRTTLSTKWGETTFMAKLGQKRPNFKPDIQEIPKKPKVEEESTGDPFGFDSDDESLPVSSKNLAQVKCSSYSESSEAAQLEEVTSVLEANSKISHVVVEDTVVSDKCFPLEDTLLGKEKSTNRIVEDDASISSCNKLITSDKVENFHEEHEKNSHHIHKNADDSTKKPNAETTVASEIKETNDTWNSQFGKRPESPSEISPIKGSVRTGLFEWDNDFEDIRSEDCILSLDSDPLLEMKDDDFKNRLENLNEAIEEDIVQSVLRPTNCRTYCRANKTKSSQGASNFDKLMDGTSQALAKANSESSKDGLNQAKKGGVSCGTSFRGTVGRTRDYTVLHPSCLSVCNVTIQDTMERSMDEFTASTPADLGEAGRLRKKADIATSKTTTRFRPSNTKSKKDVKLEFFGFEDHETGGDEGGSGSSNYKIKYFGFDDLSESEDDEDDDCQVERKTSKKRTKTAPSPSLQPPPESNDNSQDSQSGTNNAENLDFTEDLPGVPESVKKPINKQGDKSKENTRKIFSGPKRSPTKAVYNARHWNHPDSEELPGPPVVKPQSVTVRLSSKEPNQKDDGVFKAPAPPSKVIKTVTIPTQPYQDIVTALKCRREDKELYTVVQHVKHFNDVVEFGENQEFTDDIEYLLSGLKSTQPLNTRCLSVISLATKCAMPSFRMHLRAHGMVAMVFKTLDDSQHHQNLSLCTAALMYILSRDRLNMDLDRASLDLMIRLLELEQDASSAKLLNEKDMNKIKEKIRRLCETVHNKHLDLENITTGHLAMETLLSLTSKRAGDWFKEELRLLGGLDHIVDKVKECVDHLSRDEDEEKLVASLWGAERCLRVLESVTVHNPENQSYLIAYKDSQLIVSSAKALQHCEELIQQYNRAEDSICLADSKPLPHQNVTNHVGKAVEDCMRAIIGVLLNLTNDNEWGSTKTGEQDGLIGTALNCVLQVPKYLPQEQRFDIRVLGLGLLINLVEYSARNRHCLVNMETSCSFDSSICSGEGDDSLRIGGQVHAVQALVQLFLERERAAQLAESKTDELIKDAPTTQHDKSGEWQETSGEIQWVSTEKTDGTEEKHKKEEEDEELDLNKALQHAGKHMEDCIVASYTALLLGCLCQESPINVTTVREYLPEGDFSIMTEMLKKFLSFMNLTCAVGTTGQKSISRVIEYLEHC
# UniProt Q8IVM0: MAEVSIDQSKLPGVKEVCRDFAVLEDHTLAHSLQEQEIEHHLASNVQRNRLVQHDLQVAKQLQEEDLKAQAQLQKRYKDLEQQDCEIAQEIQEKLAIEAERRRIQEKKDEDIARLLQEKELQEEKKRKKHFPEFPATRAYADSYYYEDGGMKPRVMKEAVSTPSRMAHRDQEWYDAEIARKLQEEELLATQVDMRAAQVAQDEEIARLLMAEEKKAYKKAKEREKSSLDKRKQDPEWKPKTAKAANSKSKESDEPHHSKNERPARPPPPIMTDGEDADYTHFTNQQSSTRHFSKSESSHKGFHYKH
# The list shows a part of the results, in another mix than the full data.
# Compound: COC(=O)C#Cc1ccccc1 [methyl 3-phenylpropiolate]
# Assay: log2 ratio of iodoacetamide-alkyne labeling of the cysteine site, DMSO over compound (competition); higher = stronger covalent engagement of the cysteine by the compound, active = 1 or more
# Details: 500 µM; treatment time 1 h; system: HEK293T cell lysate
# Method in brief: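 After 1 h at ambient temperature with vehicle or electrophile (500 µM), HEK293T lysate (2 mg/mL) was labelled for 1 h with iodoacetamide alkyne and clicked to sCIP-TMT reagents. Pooled samples were trypsin-digested overnight at 37 °C, streptavidin-enriched, acid-eluted and analysed by Orbitrap Eclipse LC-MS/MS with FAIMS, then quantified in FragPipe over three replicates with duplicate channels. A cysteine's log2 competition ratio is its mean control-channel over mean compound-channel reporter intensity. Cysteines quantified in only one replicate were not included.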
row,Target,log2 ratio of iodoacetamide-alkyne labeling
1,UniProt Q8IX01_C183,inactive: 0.451
2,CAND1 C179 (UniProt Q86VP6),inactive: 0.0348
3,SMC5 C726 (UniProt Q8IY18),inactive: 0.249
4,UniProt Q7L0Y3_C123,inactive: -0.0842
5,ZC3HAV1 C162 (UniProt Q7Z2W4),inactive: 0.082
6,UniProt Q86Y56_C92,inactive: 0.294
7,HUWE1 C1278 (UniProt Q7Z6Z7),inactive: -0.239
8,ERI1 C75 (UniProt Q8IV48),inactive: 0.356
9,ZFYVE16 C292 (UniProt Q7Z3T8),inactive: 0.185
10,UniProt Q7LBC6_C1448,inactive: 0.222
11,LUZP1 C969 (UniProt Q86V48),active: 1.01
12,SUPV3L1 C175 (UniProt Q8IYB8),inactive: 0.138
13,UniProt Q7Z4H7_C885,inactive: 0.286
14,PEG10 C78 (UniProt Q86TG7),inactive: 0.121
15,SND1 C826 (UniProt Q7KZF4),inactive: -0.12
16,CEP97 C396 (UniProt Q8IW35),inactive: 0.126
17,MICAL3 C1760 (UniProt Q7RTP6),inactive: 0.281
18,PHF6 C212 (UniProt Q8IWS0),inactive: -0.0802
19,TRMT2A C270 (UniProt Q8IZ69),inactive: 0.617

# Given as tab-separated lines: entries from further up
row	Target	log2 ratio of iodoacetamide-alkyne labeling
11	LUZP1 C969 (UniProt Q86V48)	active: 1.01
12	SUPV3L1 C175 (UniProt Q8IYB8)	inactive: 0.138

# Next part.

row,Target,log2 ratio of iodoacetamide-alkyne labeling
1,MEX3D C362 (UniProt Q86XN8),inactive: 0.335
2,NT5DC3 C276 (UniProt Q86UY8),inactive: 0.218
3,ZFYVE16 C895 (UniProt Q7Z3T8),inactive: 0.597
4,UniProt Q7Z2T5_C730,inactive: 0.538
5,ZC3HC1 C502 (UniProt Q86WB0),inactive: 0.388
6,UniProt Q7Z434_C46,inactive: -0.391
7,ERC1 C258 (UniProt Q8IUD2),inactive: 0.276
8,TRMT2A C191 (UniProt Q8IZ69),inactive: 0.327
9,MEPCE C324 (UniProt Q7L2J0),inactive: 0.183
10,UniProt Q7Z2T5_C320,inactive: 0.767
11,VPS13B C2907 (UniProt Q7Z7G8),inactive: 0.889
12,ZC3HAV1 C38 (UniProt Q7Z2W4),inactive: 0.429
13,UniProt Q7Z5K2_C675,inactive: 0.557
14,UniProt Q86UW7_C639,inactive: -0.0248
15,CCDC50 C18 (UniProt Q8IVM0),inactive: 0.414
16,NR2C2AP C7 (UniProt Q86WQ0),inactive: 0.0291
17,PEG10 C119 (UniProt Q86TG7),inactive: 0.397
18,UniProt Q7LBC6_C509,inactive: 0.346
